US20260102387A1, “IMMUNOSUPPRESSIVE COMPOUNDS” (UNIVERSITÄT BASEL, priority 2022, published 2026)
For at least one compound, name, drawing or mass did not settle the structure.

Assays:
coronin 1 promoter = assay: EC50 analysis for coronin 1 promoter driven GFP inhibition by flow cytometry in RBL cells; format: cell-based; settings: Amlodipine 3.125 μM, verapamil 8 μM, 48 h
Protocol: RBL cells that had been incubated with the indicated calcium channel blockers (amlodipine (3.125 μM) and verapamil (8 μM) concentrations for 48 h were analyzed by flow cytometry for any alteration in coronin 1 promoter driven GFP fluorescence. The results reveal no effect of calcium channel blockers on coronin 1 promoter activity (FIG. 4).
RBL cells expressing GFP under coronin 1 promoter and optionally with RBL cells expressing RFP under CMV promoter were mixed in equal numbers and incubated with the compounds at indicated concentrations for 48-65 h and analyzed by flow cytometry for alteration in coronin 1 promoter (GFP fluorescence), CMV promoter (RFP fluorescence) values. In addition, the cells were labelled with live-dead marker for assessing cell viability status by flow cytometry. Cycloheximide (CHX) serves as positive control and DMSO serves as negative controls. Effective Concentration (EC50) values for coronin 1 promoter inhibition via GFP fluorescence analysis, non-specific promoter inhibition via CMV promoter driven-RFP fluorescence analysis and cell viability via live/dead staining as a measure for toxicity in flow cytometry for compounds (10-22 and 50a-65a) are shown in Table 6 and Table 7. Based on the EC50 analysis of the inhibition of coronin 1 promoter driven GFP fluorescence the (4S,7R)-configurated eutomers were identified (Structures FIG. 9A-C). […]

coronin 1 = assay: Western blotting of coronin 1 protein levels in RBL cells; format: cell-based, Rat; settings: 2 μg/ml
Protocol: buffer with 0.2% SDS containing protease and phosphatase inhibitors (Roche) at 4° C., followed by protein determination (BCA, Pierce) and SDS-PAGE with equal protein amounts transferred onto nitrocellulose and probed using antibodies against the indicated proteins (actin and coronin 1) followed by HRP-labeled secondary antibodies and developed using an enhanced chemi-luminescence imager (Fuji) (FIG. 3C).

SMILES | coronin 1 promoter activity as assessed by GFP reduction (coronin 1 promoter) | coronin 1 depletion by Western blot (coronin 1)
CCOC(=O)C1=C(COCCN)NC(C)=C(C(=O)OC)C1c1ccccc1Cl (centres unmarked) [Amlodipine, reference compound] | not inhibiting coronin 1 promoter activity | 
COc1ccccc1C1CC(=O)C2=C(C1)NC(C)=C(C(=O)OCC1CCCO1)C2c1cccc(O)c1 (centres unmarked) [Comp. 12, tetrahydro-2-furanylmethyl-4-(3-hydroxyphenyl)-7-(2-methoxyphenyl)-2-methyl-5-oxo-1,4,5,6,7,8-hexahydro-3-quinolinecarboxylate] |  | showed coronin 1 depletion
